Publication PMC12421854
The exact form of at least one protein or probe is not confirmed. For some assays here: A negative result means that nothing was seen under these conditions. For some assays here: Protein sequences can lack the tags named with them. For some assays here: At least one verdict was read from the data and is not stated in words by the source. For some assays here: The direction of at least one scale is not stated here.

Experiments:
[1] = system: ForF (Streptomyces formicae); assay: SPR; conditions: probe chosen as parent of truncation series, ReDCaT SPR on Biacore 8K+, SA chip, HBS-EP+ buffer (1 mM DTT added for ForJ), protein usually 1000, 100 and 10 nM, temperature not stated, recombinant protein
[2] = target: T1, ForZ (Streptomyces formicae) (UniProt A0A291QJL1); assay: SPR; conditions: ReDCaT SPR on Biacore 8K+, SA chip, HBS-EP+ buffer (1 mM DTT added for ForJ), protein usually 1000, 100 and 10 nM, temperature not stated, recombinant protein
T1 sequence (looked up, limits assumed): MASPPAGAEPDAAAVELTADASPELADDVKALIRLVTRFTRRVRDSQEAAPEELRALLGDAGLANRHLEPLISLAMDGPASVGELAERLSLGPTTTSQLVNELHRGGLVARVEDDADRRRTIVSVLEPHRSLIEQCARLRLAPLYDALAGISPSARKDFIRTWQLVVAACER

Sequence: AACGGACCAGACGAGCTACCCCGAACGGCGTAGCGAAGGG / CCCTTCGCTACGCCGTTCGGGGTAGCTCGTCTGGTCCGTTCCTACCCTACGTCCTCCTGC [pKY5_0375 probe 7 (=17)]
- binding result ([1]; one of two KY5_0375 sites): binds

Sequence: ATTAGCTCGAAGTTCGATGCATCTTGCAGT (double strand) [forZ-forAA inverted repeat probe (Fig. 4; AA_11 in Fig. S3)]
- binding signal (% of normal Rmax) ([2]; 10 uM fasamycin E (text prints 10 mM), at highest ForZ concentrations): 50
- binding result ([2]; 10 uM formicamycin I (text prints 10 mM), binding abolished, formicamycin I inhibits 500 nM ForZ with IC50 2.48 uM): no binding
- Kd [2]: 46 nM

Sequence: TGGCACACGGGGGAGGGGACATCCCTCCTTCGGCAGAGCC / GGCTCTGCCGAAGGAGGGATGTCCCCTCCCCCGTGTGCCACCTACCCTACGTCCTCCTGC [pforHI/GF probe 10 (=22)]
- binding result [1]: binds
